In PMC9651203:
These are yes or no findings as the source states them, for the method shown. Binding seen in cells or lysates may run through a third protein. These calls come from enrichment with a bait or labelling near it, and not all partners need be listed.

B1: DNA ligase 3 (protein, UniProt P49916 43-1009)
chain: LLHGHPLFLRRKPVLSFQGSHLRSRATYLVFLPGLHVGLCSGPCEMAEQRFCVDYAKRGTAGCKKCKEKIVKGVCRIGKVVPNPFSESGGDMKEWYHIKCMFEKLERARATTKKIEDLTELEGWEELEDNEKEQITQHIADLSSKAAGTPKKKAVVQAKLTTTGQVTSPVKGASFVTSTNPRKFSGFSAKPNNSGEAPSSPTPKRSLSSSKCDPRHKDCLLREFRKLCAMVADNPSYNTKTQIIQDFLRKGSAGDGFHGDVYLTVKLLLPGVIKTVYNLNDKQIVKLFSRIFNCNPDDMARDLEQGDVSETIRVFFEQSKSFPPAAKSLLTIQEVDEFLLRLSKLTKEDEQQQALQDIASRCTANDLKCIIRLIKHDLKMNSGAKHVLDALDPNAYEAFKASRNLQDVVERVLHNAQEVEKEPGQRRALSVQASLMTPVQPMLAEACKSVEYAMKKCPNGMFSEIKYDGERVQVHKNGDHFSYFSRSLKPVLPHKVAHFKDYIPQAFPGGHSMILDSEVLLIDNKTGKPLPFGTLGVHKKAAFQDANVCLFVFDCIYFNDVSLMDRPLCERRKFLHDNMVEIPNRIMFSEMKRVTKALDLADMITRVIQEGLEGLVLKDVKGTYEPGKRHWLKVKKDYLNEGAMADTADLVVLGAFYGQGSKGGMMSIFLMGCYDPGSQKWCTVTKCAGGHDDATLARLQNELDMVKISKDPSKIPSWLKVNKIYYPDFIVPDPKKAAVWEITGAEFSKSEAHTADGISIRFPRCTRIRDDKDWKSATNLPQLKELYQLSKEKADFTVVAGDEGSSTTGGSSEENKGPSGSAVSRKAPSKPSASTKKAEGKLSNSNSKDGNMQTAKPSAMKVGEKLATKSSPVKVGEKRKAADETLCQTKVLLDIFTGVRLYLPPSTPDFSRLRRYFVAFDGDLVQEFDMTSATHVLGSRDKNPAAQQVSPEWIWACIRKRRLVAPC
B2: protein disulfide isomerase family A member 6 (protein, UniProt Q15084 20-440)
chain: LYSSSDDVIELTPSNFNREVIQSDSLWLVEFYAPWCGHCQRLTPEWKKAATALKDVVKVGAVDADKHHSLGGQYGVQGFPTIKIFGSNKNRPEDYQGGRTGEAIVDAALSALRQLVKDRLGGRSGGYSSGKQGRSDSSSKKDVIELTDDSFDKNVLDSEDVWMVEFYAPWCGHCKNLEPEWAAAASEVKEQTKGKVKLAAVDATVNQVLASRYGIRGFPTIKIFQKGESPVDYDGGRTRSDIVSRALDLFSDNAPPPELLEIINEDIAKRTCEEHQLCVVAVLPHILDTGAAGRNSYLEVLLKLADKYKKKMWGWLWTEAGAQSELETALGIGGFGYPAMAAINARKMKFALLKGSFSEQGINEFLRELSFGRGSTAPVGGGAFPTIVEREPWDGRDGELPVEDDIDLSDVELDDLGKDEL

Molecular target: Mycoplasma fermentans DnaK-V5-His (Mycoplasma fermentans)
Test: affinity purification with mass spectrometry

Binder	binding
B1	binds
B2	binds
